Source: the supplement of paper PMC10849652
Some of the results follow.

Amino acid sequences for entries named in this document (tags omitted). A change or cut given only in a name is not applied to a line headed by its entry.
UniProt Q99828: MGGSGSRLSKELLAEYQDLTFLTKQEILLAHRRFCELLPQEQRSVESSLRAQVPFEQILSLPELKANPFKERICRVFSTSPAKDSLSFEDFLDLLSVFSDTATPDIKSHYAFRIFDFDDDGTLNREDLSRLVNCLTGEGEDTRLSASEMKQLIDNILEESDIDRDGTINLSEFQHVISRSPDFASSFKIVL
UniProt O15247: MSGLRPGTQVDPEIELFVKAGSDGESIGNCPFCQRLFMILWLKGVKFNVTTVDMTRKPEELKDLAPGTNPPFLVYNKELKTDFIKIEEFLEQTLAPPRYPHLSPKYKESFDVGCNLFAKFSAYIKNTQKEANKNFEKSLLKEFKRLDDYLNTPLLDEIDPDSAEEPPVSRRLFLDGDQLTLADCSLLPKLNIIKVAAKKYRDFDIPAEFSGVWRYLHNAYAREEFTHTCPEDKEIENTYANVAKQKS
UniProt Q7Z460: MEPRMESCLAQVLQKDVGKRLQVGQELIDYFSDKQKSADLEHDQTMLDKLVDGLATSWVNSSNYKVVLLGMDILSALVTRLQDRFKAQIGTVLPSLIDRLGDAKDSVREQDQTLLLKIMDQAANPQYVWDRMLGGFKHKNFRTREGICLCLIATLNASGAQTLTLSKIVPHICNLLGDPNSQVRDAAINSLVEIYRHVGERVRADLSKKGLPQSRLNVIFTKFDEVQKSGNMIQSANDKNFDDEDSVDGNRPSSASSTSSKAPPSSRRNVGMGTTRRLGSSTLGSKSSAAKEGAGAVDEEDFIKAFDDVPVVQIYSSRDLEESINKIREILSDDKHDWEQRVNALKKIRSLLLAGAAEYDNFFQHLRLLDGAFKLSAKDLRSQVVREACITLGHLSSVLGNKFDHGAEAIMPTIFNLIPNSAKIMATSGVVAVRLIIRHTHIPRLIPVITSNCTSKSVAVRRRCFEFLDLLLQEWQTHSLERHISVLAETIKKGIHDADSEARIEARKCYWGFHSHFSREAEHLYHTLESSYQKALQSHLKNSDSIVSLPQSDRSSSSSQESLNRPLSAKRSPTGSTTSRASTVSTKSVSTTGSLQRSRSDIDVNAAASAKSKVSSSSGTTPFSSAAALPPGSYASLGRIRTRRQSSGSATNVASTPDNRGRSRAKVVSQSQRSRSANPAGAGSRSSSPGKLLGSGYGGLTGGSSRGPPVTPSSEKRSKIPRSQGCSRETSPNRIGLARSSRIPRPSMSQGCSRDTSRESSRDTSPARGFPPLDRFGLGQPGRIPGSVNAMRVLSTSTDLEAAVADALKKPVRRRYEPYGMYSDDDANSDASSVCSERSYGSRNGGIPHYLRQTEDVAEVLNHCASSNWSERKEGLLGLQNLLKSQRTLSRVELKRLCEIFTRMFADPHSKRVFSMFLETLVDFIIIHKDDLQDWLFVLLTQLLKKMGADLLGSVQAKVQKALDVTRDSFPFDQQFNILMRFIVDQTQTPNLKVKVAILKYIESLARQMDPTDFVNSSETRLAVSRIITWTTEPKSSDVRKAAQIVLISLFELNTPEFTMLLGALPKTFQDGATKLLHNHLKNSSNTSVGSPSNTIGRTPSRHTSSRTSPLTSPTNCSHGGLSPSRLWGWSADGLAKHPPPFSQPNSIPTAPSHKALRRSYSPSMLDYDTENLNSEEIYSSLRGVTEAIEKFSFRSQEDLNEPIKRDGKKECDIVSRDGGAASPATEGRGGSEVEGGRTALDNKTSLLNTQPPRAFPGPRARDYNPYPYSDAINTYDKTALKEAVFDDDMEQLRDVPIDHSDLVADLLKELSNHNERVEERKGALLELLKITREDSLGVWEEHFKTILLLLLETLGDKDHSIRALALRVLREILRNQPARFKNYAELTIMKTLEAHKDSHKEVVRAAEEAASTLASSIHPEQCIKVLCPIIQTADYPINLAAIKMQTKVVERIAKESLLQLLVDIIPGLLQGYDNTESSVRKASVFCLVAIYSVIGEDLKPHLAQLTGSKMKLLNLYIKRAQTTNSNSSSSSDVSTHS
UniProt P0C7P0: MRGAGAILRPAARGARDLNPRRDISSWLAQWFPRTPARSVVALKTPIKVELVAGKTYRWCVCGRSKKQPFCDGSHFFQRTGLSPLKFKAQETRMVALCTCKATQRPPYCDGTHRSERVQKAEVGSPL
UniProt Q9NY35: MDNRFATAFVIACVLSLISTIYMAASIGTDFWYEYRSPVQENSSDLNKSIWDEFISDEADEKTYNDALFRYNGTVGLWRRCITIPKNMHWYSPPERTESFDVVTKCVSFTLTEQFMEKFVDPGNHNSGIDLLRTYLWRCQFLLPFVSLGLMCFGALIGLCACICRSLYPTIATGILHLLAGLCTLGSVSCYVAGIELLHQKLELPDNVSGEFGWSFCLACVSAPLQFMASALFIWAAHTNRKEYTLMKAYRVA
UniProt Q9UHD1: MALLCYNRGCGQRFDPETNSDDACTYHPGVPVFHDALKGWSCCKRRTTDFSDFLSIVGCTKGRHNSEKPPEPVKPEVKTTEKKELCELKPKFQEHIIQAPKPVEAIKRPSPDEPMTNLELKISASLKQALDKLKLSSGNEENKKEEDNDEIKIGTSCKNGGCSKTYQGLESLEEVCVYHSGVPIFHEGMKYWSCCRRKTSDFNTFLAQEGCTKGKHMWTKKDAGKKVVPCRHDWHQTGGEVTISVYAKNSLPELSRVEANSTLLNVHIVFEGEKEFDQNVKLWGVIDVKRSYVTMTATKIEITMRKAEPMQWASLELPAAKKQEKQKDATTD
UniProt P30085: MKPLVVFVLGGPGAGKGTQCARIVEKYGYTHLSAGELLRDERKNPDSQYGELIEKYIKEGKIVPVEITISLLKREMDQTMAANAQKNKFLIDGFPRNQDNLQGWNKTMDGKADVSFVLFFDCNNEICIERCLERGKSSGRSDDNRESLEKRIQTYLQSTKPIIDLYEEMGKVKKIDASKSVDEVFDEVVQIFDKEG
UniProt P09543: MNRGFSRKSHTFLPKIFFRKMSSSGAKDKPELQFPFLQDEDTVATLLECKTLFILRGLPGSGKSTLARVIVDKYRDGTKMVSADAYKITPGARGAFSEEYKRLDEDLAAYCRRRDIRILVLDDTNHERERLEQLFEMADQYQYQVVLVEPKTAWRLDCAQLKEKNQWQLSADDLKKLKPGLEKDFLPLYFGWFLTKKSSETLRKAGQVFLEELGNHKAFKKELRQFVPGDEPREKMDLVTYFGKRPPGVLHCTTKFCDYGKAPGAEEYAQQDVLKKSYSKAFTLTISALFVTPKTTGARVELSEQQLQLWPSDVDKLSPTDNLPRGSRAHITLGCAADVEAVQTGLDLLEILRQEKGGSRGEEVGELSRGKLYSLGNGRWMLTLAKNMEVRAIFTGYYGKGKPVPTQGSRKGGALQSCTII
UniProt Q14008: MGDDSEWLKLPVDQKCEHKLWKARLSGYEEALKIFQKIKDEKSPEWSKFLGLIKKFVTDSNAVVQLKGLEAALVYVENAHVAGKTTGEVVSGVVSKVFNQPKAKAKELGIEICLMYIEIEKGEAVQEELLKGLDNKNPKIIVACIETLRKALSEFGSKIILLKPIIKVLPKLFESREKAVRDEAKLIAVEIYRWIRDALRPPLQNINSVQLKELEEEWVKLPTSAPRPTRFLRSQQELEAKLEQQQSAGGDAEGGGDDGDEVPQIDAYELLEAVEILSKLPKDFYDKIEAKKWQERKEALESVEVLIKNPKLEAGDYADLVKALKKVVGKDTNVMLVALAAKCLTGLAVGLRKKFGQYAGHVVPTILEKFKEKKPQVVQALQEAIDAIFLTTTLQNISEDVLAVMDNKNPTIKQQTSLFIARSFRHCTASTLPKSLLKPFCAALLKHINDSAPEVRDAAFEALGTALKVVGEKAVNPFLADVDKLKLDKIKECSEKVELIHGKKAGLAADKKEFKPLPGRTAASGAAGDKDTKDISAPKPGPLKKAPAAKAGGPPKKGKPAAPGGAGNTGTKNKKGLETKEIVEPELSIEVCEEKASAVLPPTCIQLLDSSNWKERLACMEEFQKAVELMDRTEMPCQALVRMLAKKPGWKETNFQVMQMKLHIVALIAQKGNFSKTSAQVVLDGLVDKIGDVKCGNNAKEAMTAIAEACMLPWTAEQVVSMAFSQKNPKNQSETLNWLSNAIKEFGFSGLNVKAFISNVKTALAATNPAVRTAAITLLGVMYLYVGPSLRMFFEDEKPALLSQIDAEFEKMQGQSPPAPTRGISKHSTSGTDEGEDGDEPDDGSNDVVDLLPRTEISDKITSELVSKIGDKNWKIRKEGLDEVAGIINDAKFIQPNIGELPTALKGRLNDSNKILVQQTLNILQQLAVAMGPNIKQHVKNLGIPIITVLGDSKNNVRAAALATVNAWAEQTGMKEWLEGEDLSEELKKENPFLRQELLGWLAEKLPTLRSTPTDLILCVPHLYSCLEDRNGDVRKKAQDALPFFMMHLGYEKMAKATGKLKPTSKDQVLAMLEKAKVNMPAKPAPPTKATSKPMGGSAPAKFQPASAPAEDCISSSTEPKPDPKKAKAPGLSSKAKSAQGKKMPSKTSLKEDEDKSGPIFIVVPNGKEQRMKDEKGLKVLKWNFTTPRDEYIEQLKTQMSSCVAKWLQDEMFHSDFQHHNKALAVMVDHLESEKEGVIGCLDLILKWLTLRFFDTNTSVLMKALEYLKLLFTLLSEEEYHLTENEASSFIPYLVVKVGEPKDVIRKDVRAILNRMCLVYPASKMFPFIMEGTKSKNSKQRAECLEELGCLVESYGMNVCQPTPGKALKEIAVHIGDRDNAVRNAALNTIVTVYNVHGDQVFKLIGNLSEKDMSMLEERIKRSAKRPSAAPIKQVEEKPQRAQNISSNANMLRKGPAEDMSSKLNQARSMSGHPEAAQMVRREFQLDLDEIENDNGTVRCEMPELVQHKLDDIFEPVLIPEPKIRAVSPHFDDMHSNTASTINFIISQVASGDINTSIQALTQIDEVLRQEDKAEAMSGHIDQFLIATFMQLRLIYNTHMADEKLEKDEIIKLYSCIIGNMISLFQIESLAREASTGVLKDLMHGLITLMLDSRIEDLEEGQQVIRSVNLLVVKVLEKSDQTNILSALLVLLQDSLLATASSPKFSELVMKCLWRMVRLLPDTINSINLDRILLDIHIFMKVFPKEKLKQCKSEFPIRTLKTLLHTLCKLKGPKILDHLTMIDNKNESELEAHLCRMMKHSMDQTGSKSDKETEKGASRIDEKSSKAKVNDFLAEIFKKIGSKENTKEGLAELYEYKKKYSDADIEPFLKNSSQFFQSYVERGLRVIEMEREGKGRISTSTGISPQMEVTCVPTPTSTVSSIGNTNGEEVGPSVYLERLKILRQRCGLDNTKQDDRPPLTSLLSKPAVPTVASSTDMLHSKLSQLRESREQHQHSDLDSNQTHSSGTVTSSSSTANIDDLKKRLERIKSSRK
UniProt Q9NZ45: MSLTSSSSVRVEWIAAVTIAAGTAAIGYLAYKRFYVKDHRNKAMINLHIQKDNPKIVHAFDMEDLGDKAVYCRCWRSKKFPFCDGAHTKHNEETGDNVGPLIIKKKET
UniProt Q9NRP2: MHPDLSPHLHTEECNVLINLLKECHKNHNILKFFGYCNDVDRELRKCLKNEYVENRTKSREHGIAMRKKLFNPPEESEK
UniProt Q8WUH1: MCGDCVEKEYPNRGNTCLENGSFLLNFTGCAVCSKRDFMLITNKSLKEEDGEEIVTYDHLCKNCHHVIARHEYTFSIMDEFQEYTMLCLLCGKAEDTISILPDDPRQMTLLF
UniProt O75175, whole entry, looked up: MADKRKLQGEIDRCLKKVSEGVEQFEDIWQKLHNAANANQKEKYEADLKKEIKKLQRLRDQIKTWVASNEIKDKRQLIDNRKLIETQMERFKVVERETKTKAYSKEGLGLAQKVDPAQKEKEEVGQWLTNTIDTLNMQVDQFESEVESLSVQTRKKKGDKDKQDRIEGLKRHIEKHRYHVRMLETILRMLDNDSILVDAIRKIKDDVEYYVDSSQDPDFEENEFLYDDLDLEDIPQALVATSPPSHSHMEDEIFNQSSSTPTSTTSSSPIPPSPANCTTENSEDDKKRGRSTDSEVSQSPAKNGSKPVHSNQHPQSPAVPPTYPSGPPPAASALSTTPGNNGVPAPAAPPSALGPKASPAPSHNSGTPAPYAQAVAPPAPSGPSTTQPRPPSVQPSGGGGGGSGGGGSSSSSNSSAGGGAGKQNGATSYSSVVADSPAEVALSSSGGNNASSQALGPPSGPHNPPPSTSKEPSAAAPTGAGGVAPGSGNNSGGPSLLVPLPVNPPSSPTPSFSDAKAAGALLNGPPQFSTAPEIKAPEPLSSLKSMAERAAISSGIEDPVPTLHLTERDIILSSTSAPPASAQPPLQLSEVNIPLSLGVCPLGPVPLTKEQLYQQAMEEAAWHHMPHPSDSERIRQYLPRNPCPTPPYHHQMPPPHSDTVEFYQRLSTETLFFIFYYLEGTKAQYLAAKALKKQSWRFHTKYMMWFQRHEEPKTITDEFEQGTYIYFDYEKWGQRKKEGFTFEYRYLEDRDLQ

Key:
Assay in all cases: log2 fold change, soluble protein after heating vs DMSO (PISA); higher = thermal stabilisation; K562 cells, 10 uM, 30 min; active = over 0.2 and 3.5 SD of the protein, either way, in both replicates (recomputed)
[1] = compound: CC[C@@H]1C(=O)N(C)c2cnc(Nc3ccc(C(=O)NC4CCN(C)CC4)cc3OC)nc2N1C1CCCC1
In short: (§1)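 Values are thermal stability changes relative to control samples and are taken from duplicates. They are stated as log2 fold changes. Before quantification by TMTpro 16plex LC-MS/MS with equalised channel sums, K562 cells at 2×10^6 cells/mL were treated with 10 μM compound for 30 min, heated in aliquots for 3 min across 48°C-58°C, pooled, extracted in PBS with 0.5% NP-40 at 4°C, and centrifuged at 21,000xg for 90 min to give the soluble supernatant.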

[2] = compound: CC[C@@H]1C(=O)N(C)c2cnc(Nc3ccc(C(=O)N[C@H]4CC[C@H](N5CCN(CC6CC6)CC5)CC4)cc3OC)nc2N1C(C)C [volasertib]
In short: as §1

[3] = compound: CC[C@H](C)N1C=C(C2=C(C=C(C=C21)C3=CN=C(C=C3)N4CCNCC4)C(=O)NCC5=C(C=C(NC5=O)C)C)C
In short: as §1

[4] = compound: CC[C@H](C)[C@@H](C(=O)N[C@@H]([C@@H](C)O)C(=O)N[C@@H](CC(C)C)C(=O)[C@]1(CO1)C)NC(=O)[C@H]([C@@H](C)CC)N(C)C(=O)C [epoxomicin]
In short: as §1

[5] = compound: CCn1c(C(=O)N(C2CC2)C2CC2)cc2c3c(ncn3C)c(Nc3cc(C)n(C)n3)nc21
In short: as §1

[6] = compound: CCn1cc(-c2ccnc3[nH]c(-c4cccc(CN(C)C)c4)cc23)c(-c2ccc(NC(=O)N(C)C)cc2)n1
In short: as §1

[7] = compound: CN(C)CC(=O)Nc1ccc2[nH]c(=O)c3ccccc3c2c1
In short: as §1

[8] = compound: CN(CCOC1=CC=C(C=C1)C[C@H]2C(=O)NC(=O)S2)C3=CC=CC=N3 (racemic) [rosiglitazone]
In short: as §1

[9] = compound: CN1C2=C(C3=C1C(=O)N(N=C3)CC4=CC(=CC=C4)N)SC(=C2)S(=O)C
In short: as §1

[10] = compound: CN1CCC(CNc2ccc3ncc(-c4cccc(OC(F)(F)F)c4)n3n2)CC1
In short: as §1

[11] = compound: CN1CCN(CCOc2cc(OC3CCOCC3)c3c(Nc4c(Cl)ccc5c4OCO5)ncnc3c2)CC1 [saracatinib]
In short: as §1

[12] = compound: CN1CCN(c2nc(C3=C(c4c[nH]c5ccccc45)C(=O)NC3=O)c3ccccc3n2)CC1 [sotrastaurin]
In short: as §1

[13] = compound: CN1CC[C@H](c2c(O)cc(O)c3c(=O)cc(-c4ccccc4Cl)oc23)[C@H](O)C1 [alvocidib]
In short: as §1

[14] = compound: CN1CCc2c(c3ccccc3n2Cc2ccc(C(=O)NO)cc2)C1 [Tubastatin A]
In short: as §1

[15] = compound: CNC(=O)C1=CC=CC=C1NC2=NC(=NC=C2Cl)NC3=C(C=C(C=C3)N4CCOCC4)OC
In short: as §1

[16] = compound: CNC(=O)c1ccc(Nc2ncc(C(F)(F)F)c(NCc3nccnc3N(C)S(C)(=O)=O)n2)cc1 [defactinib]
In short: as §1

[17] = compound: CNCc1ccc(-c2[nH]c3cc(F)cc4c3c2CCNC4=O)cc1 [rucaparib]
In short: as §1

[18] = compound: CNc1nc(-c2ccc3c(N)n[nH]c3c2)cc(N2C[C@@H](C(=O)NC3CCCCC3)CC[C@H]2C)n1
In short: as §1

[19] = compound: COC(=O)N[C@@H](C)CNc1nccc(-c2cn(C(C)C)nc2-c2cc(Cl)cc(NS(C)(=O)=O)c2F)n1 [encorafenib]
In short: as §1

[20] = compound: COC(=O)[C@H](CCSC)NC(=O)C1=C(C=C(C=C1)NC[C@H](CS)N)C2=CC=CC=C2
In short: as §1

Measured: log2 fold change

CIB1 isoform 2 (UniProt Q99828)
inactive: [1] 0.041 | [2] -0.058 | [3] -0.026 | [4] 0.097 | [5] 0.049 | [6] -0.132 | [7] 0 | [8] 0.008 | [9] 0.05 | [10] -0.034 | [11] -0.03 | [12] -0.071 | [13] -0.025 | [14] -0.017 | [15] -0.031 | [16] 0.012 | [17] 0.058 | [18] -0.024 | [19] -0.007 | [20] 0.053

CLIC2 (UniProt O15247)
inactive: [1] -0.115 | [2] -0.224 | [3] 0.04 | [4] 0.037 | [5] -0.069 | [6] 0.008 | [7] 0.069 | [8] 0.046 | [9] -0.041 | [10] -0.101 | [11] -0.042 | [12] -0.092 | [13] -0.132 | [14] 0.035 | [15] -0.032 | [16] -0.114 | [17] 0.059 | [18] 0.061 | [19] 0.102 | [20] -0.04

COL18A1 (UniProt P39060)
inactive: [1] 0.036 | [2] -0.086 | [3] 0.08 | [4] -0.106 | [5] 0.007 | [6] 0.108 | [7] -0.114 | [8] -0.036 | [9] 0.154 | [10] 0.198 | [11] 0.002 | [12] 0.135 | [13] -0.045 | [14] 0.026 | [15] -0.073 | [16] 0.094 | [17] 0.048 | [18] -0.054 | [19] -0.071 | [20] -0.186

CLASP1 (UniProt Q7Z460)
inactive: [1] -0.13 | [2] -0.359 | [3] 0.114 | [4] 0.059 | [5] -0.055 | [6] 0.015 | [7] 0.032 | [8] 0.026 | [9] 0.091 | [10] -0.238 | [11] -0.142 | [12] -0.246 | [13] -0.12 | [14] 0.034 | [15] -0.067 | [16] -0.114 | [17] 0.176 | [18] 0.034 | [19] 0.141 | [20] -0.099

CNNM3 (UniProt Q8NE01)
inactive: [1] 0.04 | [2] -0.063 | [3] -0.018 | [4] -0.016 | [5] -0.025 | [6] 0.04 | [7] -0.02 | [8] -0.007 | [9] 0.021 | [10] 0.061 | [11] -0.086 | [12] 0.072 | [13] -0.013 | [14] 0.05 | [15] -0.004 | [16] 0.027 | [17] -0.02 | [18] -0.011 | [19] -0.045 | [20] -0.042

CISD3 (UniProt P0C7P0)
inactive: [1] -0.016 | [2] -0.007 | [3] -0.049 | [4] 0.043 | [5] 0.094 | [6] -0.106 | [7] -0.027 | [8] 0.087 | [9] -0.069 | [10] -0.151 | [11] 0.202 | [12] 0.055 | [13] -0.06 | [14] -0.031 | [15] -0.016 | [16] 0.009 | [17] -0.007 | [18] 0.036 | [19] -0.009 | [20] 0

CLDND1 (UniProt Q9NY35)
inactive: [1] 0.094 | [2] 0.263 | [3] -0.028 | [4] -0.014 | [5] 0.058 | [6] 0.034 | [7] -0.03 | [8] -0.111 | [9] 0.02 | [10] 0.24 | [11] 0.055 | [12] -0.106 | [13] 0.18 | [14] -0.015 | [15] 0.063 | [16] 0.043 | [17] 0.004 | [18] 0.057 | [19] 0.052 | [20] 0.033

CHORDC1 (UniProt Q9UHD1)
inactive: [1] -0.007 | [2] 0.11 | [3] 0.044 | [4] 0.046 | [5] 0.004 | [6] -0.059 | [7] 0.016 | [8] 0.017 | [9] -0.107 | [10] 0.024 | [11] -0.02 | [12] -0.021 | [13] -0.06 | [14] -0.026 | [15] 0.017 | [16] -0.049 | [17] -0.064 | [18] 0.01 | [19] -0.001 | [20] 0

CMPK1 (UniProt P30085)
inactive: [1] -0.032 | [2] 0.08 | [3] 0.002 | [4] 0.092 | [5] -0.001 | [6] -0.023 | [7] 0.052 | [8] 0.02 | [9] -0.088 | [10] -0.01 | [11] -0.019 | [12] 0.013 | [13] -0.012 | [14] -0.044 | [15] -0.007 | [16] -0.012 | [17] 0.026 | [18] -0.033 | [19] -0.012 | [20] -0.003

CNP (UniProt P09543)
inactive: [1] -0.046 | [2] -0.126 | [3] -0.008 | [4] 0.024 | [5] -0.023 | [6] -0.085 | [7] 0.002 | [8] 0.037 | [9] -0.041 | [10] 0 | [11] 0.003 | [12] 0.042 | [13] -0.024 | [14] 0.015 | [15] -0.061 | [16] 0.011 | [17] -0.005 | [18] -0.03 | [19] 0.014 | [20] -0.01

CKAP5 (UniProt Q14008)
inactive: [1] -0.049 | [2] -0.307 | [3] 0.122 | [4] 0.057 | [5] -0.061 | [6] 0.011 | [7] 0.062 | [8] 0.029 | [9] 0.123 | [10] -0.17 | [11] -0.087 | [12] -0.184 | [13] -0.013 | [14] 0.023 | [15] -0.023 | [16] -0.01 | [17] 0.216 | [18] 0.096 | [19] 0.13 | [20] -0.067

CLIC1 (UniProt O00299)
inactive: [1] -0.061 | [2] -0.038 | [3] 0.025 | [4] 0.017 | [5] 0.014 | [6] -0.02 | [7] -0.015 | [8] -0.004 | [9] -0.058 | [10] 0.026 | [11] 0.002 | [12] 0.02 | [13] -0.055 | [14] -0.056 | [15] 0.058 | [16] -0.02 | [17] 0.004 | [18] -0.027 | [19] 0.003 | [20] 0.016

CISD1 (UniProt Q9NZ45)
inactive: [1] 0.01 | [2] 0.067 | [3] -0.01 | [4] 0.006 | [5] -0.051 | [6] 0.002 | [7] -0.009 | [8] -0.008 | [9] -0.031 | [10] -0.017 | [11] 0.035 | [12] 0.049 | [13] -0.014 | [14] -0.039 | [15] 0.021 | [16] -0.023 | [17] 0.012 | [18] -0.045 | [19] -0.019 | [20] 0.029

Reprinted from above (two entries):
CLIC1 (UniProt O00299)
inactive: [1] -0.061 | [2] -0.038 | [3] 0.025 | [4] 0.017 | [5] 0.014 | [6] -0.02 | [7] -0.015 | [8] -0.004 | [9] -0.058 | [10] 0.026 | [11] 0.002 | [12] 0.02 | [13] -0.055 | [14] -0.056 | [15] 0.058 | [16] -0.02 | [17] 0.004 | [18] -0.027 | [19] 0.003 | [20] 0.016

CISD1 (UniProt Q9NZ45)
inactive: [1] 0.01 | [2] 0.067 | [3] -0.01 | [4] 0.006 | [5] -0.051 | [6] 0.002 | [7] -0.009 | [8] -0.008 | [9] -0.031 | [10] -0.017 | [11] 0.035 | [12] 0.049 | [13] -0.014 | [14] -0.039 | [15] 0.021 | [16] -0.023 | [17] 0.012 | [18] -0.045 | [19] -0.019 | [20] 0.029

Following part.

CMC2 (UniProt Q9NRP2)
inactive: [1] -0.031 | [2] 0.076 | [3] 0.048 | [4] -0.031 | [5] 0.012 | [6] -0.004 | [7] -0.016 | [8] -0.014 | [9] -0.013 | [10] 0.066 | [11] 0.113 | [12] 0.015 | [13] 0.073 | [14] -0.092 | [15] 0.055 | [16] -0.05 | [17] 0.001 | [18] -0.016 | [19] -0.054 | [20] 0.046

CHURC1 isoform 2 (UniProt Q8WUH1)
inactive: [1] -0.02 | [2] -0.175 | [3] 0.026 | [4] 0.029 | [5] -0.014 | [6] -0.057 | [7] 0.007 | [8] 0.039 | [9] -0.09 | [10] -0.159 | [11] 0.063 | [12] 0.093 | [13] -0.044 | [14] 0.033 | [15] -0.008 | [16] -0.075 | [17] -0.1 | [18] 0.039 | [19] 0.015 | [20] 0.014

CNOT3 (UniProt O75175)
inactive: [1] -0.15 | [2] -0.116 | [3] 0.055 | [4] 0.127 | [5] -0.02 | [6] 0.028 | [7] 0.052 | [8] 0.027 | [9] 0.005 | [10] -0.051 | [11] -0.003 | [12] -0.044 | [13] -0.005 | [14] -0.001 | [15] 0.049 | [16] -0.046 | [17] 0.091 | [18] 0.02 | [19] 0.174 | [20] -0.017
